Results reported in PMC12444411.
These are yes or no findings as the source states them, for the method shown. In cells and extracts the contact can be indirect. Some results given as binding are weak or reduced against the parent protein; the word gives no strength.

Chains of the proteins cited; added tags and fusions are not shown.
UniProt Q61188: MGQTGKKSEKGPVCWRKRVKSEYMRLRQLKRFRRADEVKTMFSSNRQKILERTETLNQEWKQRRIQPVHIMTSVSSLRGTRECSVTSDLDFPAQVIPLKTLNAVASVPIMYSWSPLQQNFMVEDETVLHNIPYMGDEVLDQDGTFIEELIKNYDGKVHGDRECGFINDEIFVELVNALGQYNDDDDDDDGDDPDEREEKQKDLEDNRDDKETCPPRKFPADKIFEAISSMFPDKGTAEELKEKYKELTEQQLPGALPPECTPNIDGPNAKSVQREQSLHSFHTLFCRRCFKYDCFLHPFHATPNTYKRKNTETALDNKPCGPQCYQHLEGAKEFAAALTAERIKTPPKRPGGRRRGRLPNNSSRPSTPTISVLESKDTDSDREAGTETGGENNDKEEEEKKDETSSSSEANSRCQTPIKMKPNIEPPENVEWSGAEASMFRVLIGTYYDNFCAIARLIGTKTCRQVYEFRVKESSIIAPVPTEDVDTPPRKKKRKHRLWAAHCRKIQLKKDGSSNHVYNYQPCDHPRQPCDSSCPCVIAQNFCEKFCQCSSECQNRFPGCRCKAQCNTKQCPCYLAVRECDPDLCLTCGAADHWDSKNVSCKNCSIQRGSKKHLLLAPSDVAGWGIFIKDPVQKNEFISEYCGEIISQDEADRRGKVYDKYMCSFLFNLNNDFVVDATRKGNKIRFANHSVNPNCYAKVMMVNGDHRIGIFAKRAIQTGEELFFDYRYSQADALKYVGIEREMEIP

Target: T1, Tri-domain proteins 27 (TRIM27) (mouse (endogenous in mRTECs)) (UniProt Q62158)
T1 sequence: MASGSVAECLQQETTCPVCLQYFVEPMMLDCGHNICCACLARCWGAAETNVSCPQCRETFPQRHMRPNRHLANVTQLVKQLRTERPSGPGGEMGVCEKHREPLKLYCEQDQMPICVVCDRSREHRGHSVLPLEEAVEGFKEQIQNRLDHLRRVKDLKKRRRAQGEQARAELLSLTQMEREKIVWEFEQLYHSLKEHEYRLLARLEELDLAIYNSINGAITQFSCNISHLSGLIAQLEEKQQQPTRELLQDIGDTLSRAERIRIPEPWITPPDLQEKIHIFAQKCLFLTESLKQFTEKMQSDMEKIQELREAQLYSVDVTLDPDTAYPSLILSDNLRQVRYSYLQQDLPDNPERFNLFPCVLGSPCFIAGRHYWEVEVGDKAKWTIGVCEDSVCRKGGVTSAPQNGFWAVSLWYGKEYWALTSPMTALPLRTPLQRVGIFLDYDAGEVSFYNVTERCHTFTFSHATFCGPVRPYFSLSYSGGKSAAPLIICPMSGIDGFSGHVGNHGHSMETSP
Assay: co-IP; cell lysates incubated for 4 h with Sepharose CL-4B beads conjugated with anti-TRIM27 antibody or IgG; bound proteins eluted and examined by western blotting; cells with and without H2O2 treatment (interaction weakened after H2O2)

binding: binds
Substance: Enhancer of zeste homolog 2 (EZH2) (from UniProt Q61188 1-746)
